{
  "source": "patent US20030158251A1",
  "about": "“Methods, pharmaceutical compositions and articles of manufacture for treating disorders associated with abnormal cell proliferation and apoptosis” (priority 2002, published 2003)",
  "key": {"p53": {"tested_on": "p53", "assay": "Immunoblot of p53 level in gamma irradiated normal thymocytes", "format": "cell-based, mouse", "conditions": "γ-irradiated normal thymocytes, 2 h, 200 μM dicoumarol, 5 μM radicicol or 5 μM geldanamycin"}, "[1]": {"tested_on": "M1-t-p53 myeloid leukemic cells", "conditions": "M1-t-p53 cells cultured at 32° C., 23 h", "protocol": "Cell viability was determined 23 h after culture at 32° C.\nThe cell lines used were: HCT116 human colon carcinoma cells, HCT116 HA-NQO1 over-expressing cells (45), p53 null HCT116 cells (Bunz, F., Dutiaux, A., Lengauer, C., Waldman, T., Zhou, S., Brown, J. P., Sedivy, J. M., Kinzler, K. W. & Vogelstein, B. (1998) Science 282, 1497-1501.), COS 1 monkey kidney cells, normal thymocytes obtained from 2.5 month old Balb/C mice and M1-t-p53 mouse myeloid leukemic cells that express a temperature-sensitive mutant p53 [Val-135] protein (Yonish-Rouach, E., Resnitzky, D., Lotem, J., Sachs, L., Kimchi, A. & Oren, M. (1991) Nature 352, 345-347).\nThe p53 in M1-t-p53 cells behaves like a tumor-suppressing wild-type p53 at 32° C. and like a mutant p53 at 37° C. (24). […]\nApoptosis in normal thymocytes was induced by gamma irradiation 4 Gy (Co^60 source 0.63 Gy/min) and in M1-t-p53 cells by culture at 32° C. The percentage of apoptotic thymocytes was determined on May-Grünwald-Giemsa-stained cytospin preparations by counting 400 cells 5 hrs post gamma-irradiation. Apoptotic cells were scored by their smaller size, condensed chromatin, and fragmented nuclei compared with non-apoptotic cells. […] The percent of viable cells (non apoptotic and not stained with trypan-blue) was determined by counting 400 cells in a hemocytometer after 23 hrs at 32° C. […]"}, "thymocytes": {"tested_on": "thymocytes", "assay": "Dexamethasone induced apoptosis in thymocytes", "format": "cell-based, mouse", "excerpt": "Accumulation of p53 in γ-irradiated or doxorubicin treated 7-M12 myeloid leukemic cells (28) induces expression of mdm2 and waf-1."}},
  "note": "At least one structure is not confirmed: it was looked up by name or label, or the drawing left a doubt.",
  "data": [
    {"smiles": "COC1=C2C[C@@H](C)C[C@H](OC)[C@H](O)[C@@H](C)/C=C(\\C)[C@H](OC(N)=O)[C@@H](OC)/C=C\\C=C(/C)C(=O)NC(=CC1=O)C2=O", "note": "[geldanamycin]", "values": [
      {"measurement": "wild-type p53 accumulation", "setting": "p53", "value": "only a weak inhibition"},
      {"measurement": "suppression of wild-type p53 induced apoptosis", "setting": "[1]", "value": "strongly suppressed"},
      {"measurement": "suppression of dexamethasone induced apoptosis", "setting": "thymocytes", "value": "strongly suppressed"}
    ]}
  ]
}
